Values quoted from earlier work, collected in patent publication US5120870A, “Emulsion of lipid containing a prostaglandin analogue” (priority 1989, dated 1992).
The name of at least one read-out is uncertain.

Test system: human platelet aggregation
Details: Table 1(a), mean ± SE, n = 4-7, cited from earlier work; for Inhibitory effects against human platelet aggregation: (no incubation stated)

Row | SMILES | Inhibitory effects against human platelet aggregation [ng/mL] | Inhibitory effects against human platelet aggregation, after incubating in human serum for 20 min [ng/mL]
1 | CCCCC[C@H](O)/C=C/[C@H]1[C@H](O)CC(=O)[C@@H]1CCCCCCC(=O)OCCCC [PGE1 butyl ester] | 68.0 ± 16.0 | 22.7 ± 5.0
2 | CCCCC[C@H](O)/C=C/[C@H]1[C@H](O)CC(=O)[C@@H]1CCCCCCC(=O)OC [PGE1 methyl ester] | 86.7 ± 14.7 | 39.7 ± 11.3
3 | CCCCC[C@H](O)/C=C/[C@H]1[C@H](O)CC(=O)[C@@H]1CCCCCCC(=O)O [PGE1] | 20.0 ± 3.3 | 20.3 ± 4.3
4 | CCCCCCCCOC(=O)CCCCCC[C@H]1C(=O)C[C@@H](O)[C@@H]1/C=C/[C@@H](O)CCCCC [PGE1 octyl ester] |  | 491.7 ± 24.8
5 | CCCCC[C@H](O)/C=C/[C@H]1[C@H](O)CC(=O)[C@@H]1CCCCCCC(=O)OCC [PGE1 ethyl ester] | 101.0 ± 28.7 | 72.3 ± 20.3
